About 7,500 (2.1%) of roughly 360,000 compounds were called active. The inconclusive results got no clear call from the source; some entries with a clear call stand among them for comparison. Calls follow the shape of the dose curve; as a rule, active = well fitted inhibition curve with a large enough effect; inconclusive = small, poorly fitted or top-dose-only effect, or effect the other way; inactive = flat fitted curve, though single readings scatter. Potencies of inconclusive entries are doubtful fits and often do not repeat.
experiment: Nrf2 qHTS screen for inhibitors; details: A549 ARE-Fluc reporter, luciferase luminescence, 18-24 h; activity change, negative = inhibition: at 46 µM (top of the series); also: nearly all actives have a fitted effect of over 60% in size
Procedure, shortened: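 Quantitative HTS in A549 cells stably bearing an antioxidant response element-firefly luciferase construct. Inhibition of Nrf2-driven transcription was scored by luminescence after 18-24 h of compound exposure at 37 °C.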
% is scaled to controls: 0 for no effect and ±100 for the full control effect; potency is read from the fitted curve at half-maximal effect.

| Structure (SMILES) | Potency | activity change, negative = inhibition |
| --- | --- | --- |
| COc1cccc(-c2nc(CSCC(=O)NCCc3ccc(Cl)cc3)c(C)o2)c1 | inconclusive: 18.4 µM [falling, single point] | – |
| CCCCSc1ncnc2c1c(-c1ccccc1)cn2-c1cccc(F)c1 | – | inactive: 14.4% [at 9.27 µM] |
| CCN(CC)CCNC(=O)c1ccc2c(c1)sc1nc(-c3ccc(F)cc3)cn12 | – | inactive: -5.52% |
| Cc1cc2n(n1)C(c1ccccc1)Nc1ccccc1-2 (stereo unspecified) | – | inactive: -21.2% |
| CCN(CC)S(=O)(=O)c1nnc(NC(=O)COc2ccc(Cl)cc2)s1 | active: 4.11 µM | – |
| CCc1nc2c(c(SC)nn2-c2ccccc2)c(N)c1C(=O)OC | – | inactive: -3.91% |
| Cc1ccc(-c2nc(-c3ccncc3)no2)c(Cl)c1 | inconclusive: 1.84 µM [activator, partial curve, poor fit] | – |
| O=C(COC(=O)c1nc(Cl)c(Cl)c(Cl)c1Cl)c1ccc[nH]1 | – | inactive: 20% |
| CCCCCCCCCCOC(=O)Cn1c(COc2ccccc2OC)[n+](C)c2ccccc21 | inconclusive: 29.1 µM [falling, single point] | – |
| Cc1cc(Cl)ccc1NC(=S)Nc1cccnc1 | – | inactive: 3.88% |
| O=C(Nc1cc(-c2nc3ncccc3o2)ccc1Cl)c1ccc([N+](=O)[O-])o1 | inconclusive: 20.6 µM [activator, single point] | – |
| COc1cc2c(O)c3c(c(-c4ccc5c(c4)OCO5)c2cc1OC)C(=O)OC3 | inconclusive: 29.1 µM [falling, single point] | – |
| CCOC(=O)c1cc(S(=O)(=O)N(C)Cc2ccccc2)cn1C | – | inactive: -13.3% |
| COc1ccc(C(CNC(=O)COc2ccc(Cl)c(C)c2)N2CCOCC2)cc1 (stereo unspecified) | – | inactive: -5.21% |
| CCCC(=O)Nc1ccc(C(=O)COC(=O)C2CC2C)cc1 (stereo unspecified) | inconclusive: 29.1 µM [activator, partial curve, poor fit] | – |
| O=C(Nc1ccc(N2CCN(C(=O)c3cccs3)CC2)cc1)c1ccc(Br)o1 | inconclusive: 13 µM [falling, partial curve, poor fit] | – |
| O=C1c2ccccc2CN1c1ccccc1 | inconclusive: 10.3 µM [activator, partial curve, poor fit] | – |
| CCCN(CC1CC1)C(=O)CSc1ncnc2sc(C)c(C)c12 | inconclusive: 16.4 µM [falling, single point] | – |
| N#Cc1c(NC(=O)CSc2ncn[nH]2)sc2c1CCCCC2 | active: 0.366 µM | – |
| O=C(CSc1ncc(-c2ccc(F)cc2)n1Cc1ccco1)Nc1ccc2c(c1)OCO2 | inconclusive: 23.1 µM [falling, single point] | – |
| Cc1ccc(CNC(=O)c2ccc(Cn3c(SCc4ccccc4F)nc4cccnc43)cc2)cc1 | inconclusive: 29.1 µM [falling, single point] | – |

One compound at a time, as listed above. Values in the order: Potency	activity change, negative = inhibition
`Cc1cc(Cl)ccc1NC(=S)Nc1cccnc1` in the list: –	inactive: 3.88%
`O=C(CSc1ncc(-c2ccc(F)cc2)n1Cc1ccco1)Nc1ccc2c(c1)OCO2` in the list: inconclusive: 23.1 µM [falling, single point]	–

— PubChem BioAssay AID504444 (National Center for Advancing Translational Sciences (NCATS), 2011)
